Measured values as given in PubChem BioAssay AID623959 (National Center for Advancing Translational Sciences (NCATS), 2012).
Screen size: about 1,400 compounds; fewer than 10 were called active. About 8% were inconclusive and are not listed. Calls follow the shape of the dose curve; as a rule, active = well fitted curve in the direction sought with a large enough effect; inconclusive = small, poorly fitted or top-dose-only effect, or another doubt; inactive = no such curve, though single readings can be large or run the other way. This is one part of the list.

By UniProt entry, the sequences of proteins in these tests, tags left out.
UniProt Q8NER1, whole entry, looked up: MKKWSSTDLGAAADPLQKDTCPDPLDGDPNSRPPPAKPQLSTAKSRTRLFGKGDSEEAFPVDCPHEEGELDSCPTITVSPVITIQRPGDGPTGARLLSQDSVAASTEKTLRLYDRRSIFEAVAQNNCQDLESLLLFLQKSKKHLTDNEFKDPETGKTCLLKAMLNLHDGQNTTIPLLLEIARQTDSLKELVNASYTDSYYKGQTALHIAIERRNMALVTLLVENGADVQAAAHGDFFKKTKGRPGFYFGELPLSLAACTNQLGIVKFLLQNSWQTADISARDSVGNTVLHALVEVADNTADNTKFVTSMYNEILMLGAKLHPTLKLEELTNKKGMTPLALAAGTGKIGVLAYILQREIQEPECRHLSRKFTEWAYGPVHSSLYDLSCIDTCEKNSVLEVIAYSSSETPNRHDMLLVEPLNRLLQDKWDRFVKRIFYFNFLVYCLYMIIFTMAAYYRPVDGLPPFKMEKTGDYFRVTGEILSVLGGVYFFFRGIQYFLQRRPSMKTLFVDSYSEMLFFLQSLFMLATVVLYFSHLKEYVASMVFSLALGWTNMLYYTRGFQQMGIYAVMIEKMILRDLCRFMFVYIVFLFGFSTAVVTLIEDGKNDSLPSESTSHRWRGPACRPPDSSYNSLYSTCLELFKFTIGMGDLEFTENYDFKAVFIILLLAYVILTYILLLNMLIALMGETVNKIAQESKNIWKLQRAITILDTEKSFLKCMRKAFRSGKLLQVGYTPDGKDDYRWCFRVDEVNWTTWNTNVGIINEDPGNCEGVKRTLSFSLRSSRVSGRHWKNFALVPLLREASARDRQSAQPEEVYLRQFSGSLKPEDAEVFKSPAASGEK

biological target: Transient receptor potential cation channel subfamily V member 1 (Homo sapiens) (UniProt Q8NER1); assay: qHTS Assay for Compounds that Act as Potentiators of the Vanilloid Receptor 1: Hit Validation; conditions: TRPV1-expressing cells, Fluo-8 calcium influx, capsaicin EC20; series mostly up to 42.1 µM; activity change, positive = potentiation: at the top concentration; also: % of control where 0% means no effect
How it was run: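 TRPV1 cells (2000/well, overnight 35.5 °C) loaded with Fluo-8 calcium dye 40–90 min at room temperature. FDSS fluorescence (ex 480/em 520 nm) read 3 min after compound, then 2 min after capsaicin at EC20.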

Activity change, positive = potentiation, inactive:
O=C(Nc1ccc(Br)cn1)c1ccc(Cl)s1 -38.1%
Cc1ccc(S(=O)(=O)N2CCOCC2)cc1C(=O)Nc1ccc2c(c1)CCC2 -31.5%
COc1cc2c(C(=O)N3CCOCC3)c(CSc3ccccc3)n(C)c2cc1Br -3.18%
COc1ccc(CNC(=O)COC(=O)/C=C/c2cccc(Br)c2)cc1OC -28.3%
COc1cccc(/C=C/C(=O)Nc2ccc3[nH]c(=O)[nH]c3c2)c1 -38%
COc1nc(OC)nc(N2CCC(NC(=O)C(Cc3cccc(OC)c3OC)NC(C)=O)CC2)n1 (configuration not stated) -3.2%
CC(=O)NCC(=O)N(Cc1ccco1)C1(C(=O)NC2CCCC2)CCCCC1 2.18%
COc1ccc(COC(=O)N/N=C(\C)CC(=O)NCc2ccc(Cl)cc2)cc1 -6.22%
CCN(c1ccccc1)S(=O)(=O)c1ccc2c(c1)N(C(C)=O)CCO2 -20.4%
O=C(Nc1ccccc1)c1cc(-c2ccccc2Cl)no1 -38.8%
O=C(c1ccccc1F)N1CCN(c2ccccn2)CC1 -10.9%
Cc1ccc(NC2CCCN(C(=O)CCC(=O)c3ccccc3)C2)cc1C (configuration not stated) -38.3%
O=C(c1cc(C2CC2)nc2ccccc12)N1N=C(C(F)F)CC1(O)C(F)F (configuration not stated) -3.7%
O=C(O/N=C1\CCS(=O)(=O)c2sccc21)c1c(F)cccc1F 6.48%
Cc1ccc(OCC(=O)NC(C)c2ccccc2)cc1 (configuration not stated) -12.5%
O=C(NCc1ccccc1)NS(=O)(=O)c1ccccc1Cl -13.3%
Cc1cccc(NC(=O)c2ccc(S(=O)(=O)C(F)F)cc2)c1C -27.8%
Cc1ccnc(NC(=O)CCC(=O)N(CC(=O)NC2CCCCC2)Cc2cccs2)c1 -5.42%
CCn1cnc2cc(NCc3ccc(OC)cc3)ccc21 -4.4%
Cn1c(=O)n(CC(=O)N2CCN(c3nnc(-c4ccccc4)c4ccccc34)CC2)c2ccccc21 -6.24%
COC(=O)c1c(C(=O)OC)c(-c2ccccc2)n2c1CS(=O)C2 (configuration not stated) 9.33%
Cc1ccccc1N1CCN(c2ncnc3c2cnn3Cc2ccc(Cl)cc2)CC1 -3.54%
O=C(CSc1nc(C2CC2)nc2ccccc12)N1CCCCC1 -6.58%
COc1cc(/C=C/C(=O)O)ccc1S(=O)(=O)N1CCCc2ccccc21 -7.2%
CC(C)c1ccc(NCCC(=O)c2cccs2)cc1 -39%
Cc1ccc2c(c1)[C@H]1[C@H](CO2)[C@H](c2ccccc2)[C@]2(C)C(=O)Nc3cc(Cl)ccc3C(=O)N12 3%
CC(C)Oc1ccc(C(=O)O)c(C(=O)O)c1 -6.24%
CCSC1=NCCN1S(=O)(=O)c1ccc(F)cc1 -7.11%
O=C(CCCCn1c(=O)c2ccccc2n(CC(=O)NC2CCCC2)c1=O)NCc1ccco1 -5.96%
COCCN(CCOC)S(=O)(=O)c1ccc(C(=O)Nc2nnc(C3CC3)o2)cc1 -6.89%
O=C(c1ccc(-n2c(SCc3cccc(F)c3)nc3ccccc3c2=O)cc1)N1CCOCC1 -37.8%
CCc1nc(Nc2ccccc2)c2oc3ccccc3c2n1 -39.2%
CCCCc1nc(N2CCN(C(=O)c3ccco3)CC2)c(C#N)c2c1CCCC2 -38.4%
Cc1nc(N2CCCCC2)c2c(C)c(C(=O)Nc3ccccc3C(F)(F)F)sc2n1 -30.9%
O=C(O)c1ccc(NC(=O)c2ccccc2Br)c(NC(=O)c2ccccc2Br)c1 -9.56%
CC(C)(C)c1ccc2c(c1)OC(C(=O)N/N=C\c1ccncc1)CO2 (configuration not stated) -38.1%
Cc1ccc(N2C(=O)C(CC(=O)Nc3cccc(F)c3)N(CCc3ccncc3)C2=O)cc1 (configuration not stated) -6.35%
CC1(C)CC(NS(=O)(=O)c2ccc(Cl)cc2)CC(C)(C)N1 -14.3%
OCc1c(OCc2cccc(F)c2)ccc2ccccc12 -5.44%
COc1ccc(/C=C(\C#N)c2n[nH]c(Cn3cncn3)n2)cc1 -9.19%
CS(=O)(=O)N1N=C(c2cccs2)CC1c1ccc(Cl)o1 (configuration not stated) 0.108%
CCOc1ccc(CNC(=O)CCSCc2ccccc2F)cc1OC -38.4%
O=C(Nc1ccc(Cc2ccc(NC(=O)C3CC3)c(O)c2)cc1O)C1CC1 11.9%
Cc1ccc2oc(C(=O)Nc3cc(C)on3)c(C)c2c1 1.69%
Cc1ccc(C(=O)CSc2ccc(-c3cccnc3)nn2)cc1 -4.92%
CC(C)(C)c1ccc(C(=O)Nc2cccc([N+](=O)[O-])c2)cc1 -39.1%
O=C(c1ccc(C(F)(F)F)cc1)C1CCCN(C(=O)CCc2ccncc2)C1 (configuration not stated) -31.3%
O=C(CCn1c(=S)[nH]c2ccccc2c1=O)NCCc1ccccc1 0.76%
c1ccc2c(c1)ccc1nnc(SCc3ccc4c(c3)OCO4)n12 -6.53%
O=C(OCc1nnn(Cc2ccccc2)c1-c1c(COC(=O)c2ccccc2)nnn1Cc1ccccc1)c1ccccc1 2.69%
Cc1ccc(Nc2nc(-c3cccnc3)nc3ccccc23)cc1 -38.9%
O=C(NCCN1CCOCC1)C1CCC(=O)N1Cc1ccccc1Cl (configuration not stated) -1.67%
COc1ccc(-n2nc(C(=O)NCC(=O)NCCCN3CCCCCC3)c3ccccc3c2=O)cc1Cl -7.25%
CN1CCN(c2ccc(NC(=O)CN3CCOCC3)cc2F)CC1 -3.44%
COc1ccc(C2CC(c3cccs3)=NN2C(=S)Nc2ccccc2)cc1OC (configuration not stated) 1.54%
COc1ccccc1CNC(=O)C1CCCN1S(=O)(=O)c1cccc2cccnc12 (configuration not stated) 6.62%
COc1ccc(NC(=O)c2ccccc2NC(=O)c2ccccc2)cc1 5.64%
CCCCNc1c(-c2cccc(-c3cc(C(C)=O)cs3)c2)nc2cc(C)ccn12 -38.5%
CNc1c(NS(=O)(=O)c2cc(OC)ccc2OC)c(=O)oc2ccccc12 5.88%
Cc1ccc(-c2csc(N(C)C(=O)c3c(C)nn(-c4ccccc4)c3Cl)n2)cc1 -1.37%
O=C(N/N=C/c1ccc(Br)s1)c1ccccn1 -39%
O=C(CCSc1ccc(Cl)cc1)NCc1ccncc1 -38.8%
CCC(C)(C(=O)NC1CCCC1)N(C)C(=O)c1ccccn1 (configuration not stated) -5.13%
O=C(CCC(=O)N1CCCC(Nc2ccccc2)C1)c1ccc(F)cc1 (configuration not stated) -39.4%
C=CCOc1c(Br)cc(CNc2ccc3[nH]c(=O)[nH]c3c2)cc1OCC -25.8%
Cc1ccc(NC(=O)CCSc2nnc(-c3ccco3)o2)cc1 0.582%
O=C(Nc1ccc(C(=O)O)cc1)/C(=C\c1ccccc1)NC(=O)c1ccco1 -6.77%
COc1ccc(NC(=O)c2ccc(Br)c(S(=O)(=O)N3CCOCC3)c2)cc1 -24.8%
CCOCCCn1c(=S)[nH]c2cc(C(=O)N3CCC(C(N)=O)(N4CCCCC4)CC3)ccc2c1=O -7.29%
CC(C)(C)c1ccc(C(=O)NNC(=O)C2CCCCC2)cc1 -33.1%
COc1cc(C2C(C#N)=C(N)N(c3cccnc3)C3=C2C(=O)CC(C)(C)C3)ccc1O (configuration not stated) -0.886%
Fc1cccc(CCN2CCN=C2Nc2ccccc2)c1 13.1%
COc1cc2[nH]c(C(=O)Nc3ccc(F)cc3)cc2c(OC)c1OC -38.3%
COc1cccc(CN(C)c2nc(-c3cccs3)nc3ccccc23)c1 -5.99%
COc1cc2ccc3c(CCN(C)C)cc(OC)c(OC)c3c2cc1OC -5.22%
CCC(=O)Nc1ccc(S(=O)(=O)NCCc2ccccc2)cc1 -8.71%
CCc1nnc(NC(=O)CSc2nnc(-c3ccc(S(=O)(=O)N4CCCC4)cc3)n2CC)s1 -1.37%
N#Cc1ccc(NC(=O)CCc2ccc(S(=O)(=O)N3CCOCC3)cc2)cc1 -32.7%
COc1ccc(NC(=O)CN2CCCCC2)cc1 -0.829%
O=C(c1ccco1)N1CCN(Cc2nc3ccccc3c(=O)n2-c2ccc(F)cc2)CC1 -10.1%
C/C(=N\Nc1ccc2nncn2n1)c1ccc(Br)s1 -31.2%
Cc1ccc(S(=O)(=O)N2CCN(C(=O)c3ccccc3)C2)cc1[N+](=O)[O-] -3.75%
COc1ccc(OC)c(CNC(=O)CCCn2ccc3cc(S(=O)(=O)N4CCCC4)ccc32)c1 -6.47%
COc1cc(CCC(O)CC(=O)CCc2ccccc2)ccc1O (configuration not stated) -39.6%
COc1ccc2nc(N)sc2c1 -9.83%
Cc1ncc(CSc2nc3ccccc3[nH]2)c(N)n1 -5.57%
CC(=O)N(c1ccc(N(C(C)=O)S(=O)(=O)c2cccs2)cc1)S(=O)(=O)c1cccs1 -11.5%
Cc1ccc(-n2nc(C(=O)N3CCOCC3)cc2-c2ccc(Cl)cc2)cc1 -15.1%
COc1cc(OC)c(C2=NOC(C(=O)NCc3ccc4c(c3)OCO4)C2)cc1Cl (configuration not stated) -4.8%
CC(C)CNC(=O)c1cccc(NC(=O)c2ccc3c(c2)C(=O)N(C)C3=O)c1 -7.15%
CCCCCC(=O)NC(NC(=S)N1CCOCC1)C(Cl)(Cl)Cl (configuration not stated) -38.2%
Cc1c(Cl)c(-c2n[nH]c(=S)n2-c2ccc(F)cc2)nn1C -7.45%
COc1ccc(NS(=O)(=O)c2ccc3[nH]c(=O)[nH]c3c2)cc1 3.72%
Brc1ccc(OCCCOc2cccc3cccnc23)cc1 -25.9%
CC(=O)Nc1ccc(S(=O)(=O)NCCc2csc(C)n2)cc1 -4.87%
C=CCNc1nc2c(c(=O)n(C)c(=O)n2C)n1CCCCCC -7.33%
O=C(Nc1ccc(F)cc1)c1cc(Cl)sc1Cl -13.9%
CCc1ccccc1NC(=O)CCC(=O)Nc1nnc(C(C)C)s1 0.768%
CCn1c(SCC(=O)Nc2nc(C)cs2)nnc1C(C)NC(=O)c1ccccc1 (configuration not stated) -6.95%
COc1cccc(/C=N/NC(=O)c2nc(-c3ccccc3)cc(-c3ccccc3)n2)c1O -4.21%
Cc1cc(-c2nnc(SCC(=O)Nc3ccccc3C(F)(F)F)n2N)n[nH]1 -1.55%
COCCNC(=O)CCc1c(C)nc2c(c(C)nn2-c2ccc(C)cc2)c1C -38.5%
Cc1cccc(-n2c(=O)[nH]c3c(C(N)=O)nc(CC(C)C)nc32)c1 0.951%
CSCc1ccc(C(=O)N2CCCC(Nc3ccc4c(c3)OCCO4)C2)o1 (configuration not stated) -35.3%
O=C(c1cc(COc2ccc(F)cc2Cl)on1)N1CCC(c2ccncc2)CC1 -38.4%
CC1(S(=O)(=O)O)CC(=O)c2ccccc2C1=O (configuration not stated) -4.21%
CCOC(=O)/C=C1\CN(CCC(C)C)S(=O)(=O)c2ccccc21 -8.51%

3 entries picked at random from those above, as already listed:
Activity change, positive = potentiation, inactive:
COc1ccc(NC(=O)c2ccc(Br)c(S(=O)(=O)N3CCOCC3)c2)cc1 -24.8%
CCn1cnc2cc(NCc3ccc(OC)cc3)ccc21 -4.4%
COc1ccc(NC(=O)CN2CCCCC2)cc1 -0.829%

Already shown: entries from further up.
Activity change, positive = potentiation, inactive:
CC(=O)Nc1ccc(S(=O)(=O)NCCc2csc(C)n2)cc1 -4.87%
C=CCNc1nc2c(c(=O)n(C)c(=O)n2C)n1CCCCCC -7.33%
